Data from patent US20200222474A1, “COMPOSITIONS AND METHODS FOR INCREASING PHYTOCHEMICAL BIOAVAILABLITY AND BIOACTIVITY” (North Carolina State University, priority 2017, published 2020).
This continues a long series; more values of the same kind are listed elsewhere.

Tested on: L. acidophilus NCFM
Assay: RNA-seq transcriptional analysis of L. acidophilus NCFM growing on plant glycosides
Assay type: cell-based, Lactobacillus acidophilus
[1] = LBA0160 Anaerobic ribonucleoside triphosphate reductase, COG F
[2] = LBA0197 Oligopeptide binding protein, COG E
[3] = LBA0198 Peptide binding protein, COG E
[4] = LBA0225 6-p-beta-glucosidase, COG G
[5] = LBA0227 Celiohiose-specific PTS IIC, COG G
[6] = LBA0228 Transcriptional regulator, COG G
[7] = LBA0455 Mannose-specific PTS system component IIC, COG G
[8] = LBA0456 Mannose-specific PTS system component IID, COG G
[9] = LBA0491 Cellobiose-specific PTS IIC, COG G
[10] = LBA0503 ABC transporter permease, COG G
[11] = LBA0606 PTS system arbutin-like IIBC component, COG G
[12] = LBA0609 PTS enzyme II ABC component, COG G
[13] = LBA0680 Glycogen branching enzyme, COG G
[14] = LBA0681 Glucose-1-phosphate adenylyltransferase, COG G
[15] = LBA0682 Glucose-1-phosphate adenylyltransferase, COG G
[16] = LBA0683 Glycogen synthase, COG G
[17] = LBA0685 Glycogen phosphorylase, COG G
[18] = LBA0686 Amylopullulanase, COG G
[19] = LBA0687 Phosphoglucomutase, COG G
[20] = LBA0724 Transcription antiterminator, COG G
[21] = LBA0726 Phospho-beta-galactosidase II, COG G
[22] = LBA0874 Phospho-beta-galactosidase I, COG G
[23] = LBA0875 Transcriptional regulator, COG G
[24] = LBA0876 Cellobiose-specific PTS IIC, COG G
[25] = LBA0877 Cellobiose-specific PTS IIA, COG G
[26] = LBA0986 Galactose mutarotase related ensyme, COG G
[27] = LBA1102 Transmembrane protein, COG G
[28] = LBA1400 Oligopeptide ABC transporter substrate binding protein, COG E
[29] = LBA1433 Dihydroxyacetone kinase, COG G
[30] = LBA1434 Dihydroxyacetone kinase, COG G
[31] = LBA1974 Pyruvate oxidase, COG EH
[32] = gene LBA0863 (Hypothetical protein)
[33] = gene LBA0878 (Hypothetical protein)
[34] = gene LBA0888 (Hypothetical protein)
[35] = gene LBA0987 (Hypothetical protein)
[36] = gene LBA1019 (Mucus binding protein)
[37] = gene LBA1020 (Mucus binding protein)
[38] = gene LBA1227 (Hypothetical protein)
[39] = gene LBA1370 (Putative bacteriophage-related protein)
[40] = gene LBA1409 (Hypothetical protein LBA1409)
[41] = gene LBA1460 (Mucus binding protein precursor)
[42] = gene LBA1461 (Putative regulator)
[43] = gene LBA1539 (Hypothetical protein)
[44] = gene LBA1608 (Hypothetical protein)
[45] = gene LBA1612 (Fibrinogen-binding protein)
[46] = gene LBA1652 (Mucus binding protein precursor Mub)
[47] = gene LBA1655 (Hypothetical protein)
[48] = gene LBA1686 (Hypothetical protein)
[49] = gene LBA1693 (Hypothetical protein)
[50] = gene LBA1694 (Hypothetical protein)
[51] = gene LBA1709 (Mucus binding protein precursor Mub)
[52] = gene LBA1784 (Hypothetical protein)
[53] = gene LBA1786 (Hypothetical protein)
[54] = gene LBA1791 (Hypothetical protein)
[55] = gene LBA1792 (Hypothetical protein)
[56] = gene LBA1794 (Gassericin K7 B accessory protein)
[57] = gene LBA1797 (Hypothetical protein)
[58] = gene LBA1801 (Hypothetical protein)
[59] = gene LBA1802 (Hypothetical protein)
[60] = gene LBA1803 (Hypothetical protein.)
[61] = gene LBA1804 (Hypothetical protein)
[62] = gene LBA1805 (Hypothetical protein)
[63] = gene without printed locus tag, last line of Table 5 (Hypothetical protein)

OC[C@H]1O[C@@H](O[C@H]2[C@H](O)[C@@H](O)[C@@H](O)O[C@@H]2CO)[C@H](O)[C@@H](O)[C@H]1O [Lac]
Log2 differential normalized TPM ratio compared to glucose (LBA0146 PTS system HA, COG G): 1.6
Transcripts per million (rpm) (LBA0146 PTS system HA, COG G): 23.8 rpm
Log2 differential normalized TPM ratio compared to glucose [1]: 0.9
Transcripts per million (rpm) [1]: 333.4 rpm
Log2 differential normalized TPM ratio compared to glucose [2]: −2.3
Transcripts per million (rpm) [2]: 13.9 rpm
Log2 differential normalized TPM ratio compared to glucose [3]: −3
Transcripts per million (rpm) [3]: 5.4 rpm
Log2 differential normalized TPM ratio compared to glucose [4]: −0.4
Transcripts per million (rpm) [4]: 21.5 rpm
Log2 differential normalized TPM ratio compared to glucose [5]: 0.3
Transcripts per million (rpm) [5]: 4.5 rpm
Log2 differential normalized TPM ratio compared to glucose [6]: 0.1
Transcripts per million (rpm) [6]: 15.1 rpm
Log2 differential normalized TPM ratio compared to glucose [7]: 1
Transcripts per million (rpm) [7]: 599.9 rpm
Log2 differential normalized TPM ratio compared to glucose [8]: 1
Transcripts per million (rpm) [8]: 1025.4 rpm
Log2 differential normalized TPM ratio compared to glucose [9]: 2.1
Transcripts per million (rpm) [9]: 31 rpm
Log2 differential normalized TPM ratio compared to glucose [10]: 1.2
Transcripts per million (rpm) [10]: 7.3 rpm
Log2 differential normalized TPM ratio compared to glucose (LBA0505 Fructosidase, COG G): 0.9
Transcripts per million (rpm) (LBA0505 Fructosidase, COG G): 6.9 rpm
Log2 differential normalized TPM ratio compared to glucose [11]: 2.2
Transcripts per million (rpm) [11]: 20.6 rpm
Log2 differential normalized TPM ratio compared to glucose [12]: 1.6
Transcripts per million (rpm) [12]: 153.8 rpm
Log2 differential normalized TPM ratio compared to glucose [13]: 1
Transcripts per million (rpm) [13]: 131.9 rpm
Log2 differential normalized TPM ratio compared to glucose [14]: 1.8
Transcripts per million (rpm) [14]: 147.4 rpm
Log2 differential normalized TPM ratio compared to glucose [15]: 1.8
Transcripts per million (rpm) [15]: 175.4 rpm
Log2 differential normalized TPM ratio compared to glucose [16]: 1.9
Transcripts per million (rpm) [16]: 224.9 rpm
Log2 differential normalized TPM ratio compared to glucose [17]: 1.8
Transcripts per million (rpm) [17]: 225.7 rpm
Log2 differential normalized TPM ratio compared to glucose [18]: 1.8
Transcripts per million (rpm) [18]: 228.8 rpm
Log2 differential normalized TPM ratio compared to glucose [19]: 1.7
Transcripts per million (rpm) [19]: 409.4 rpm
Log2 differential normalized TPM ratio compared to glucose [20]: 1.8
Transcripts per million (rpm) [20]: 105.4 rpm
Log2 differential normalized TPM ratio compared to glucose (LBA0725 PTS EII system, COG G): 2.7
Transcripts per million (rpm) (LBA0725 PTS EII system, COG G): 12.1 rpm
Log2 differential normalized TPM ratio compared to glucose [21]: 2.7
Transcripts per million (rpm) [21]: 133.6 rpm
Log2 differential normalized TPM ratio compared to glucose [22]: 1.1
Transcripts per million (rpm) [22]: 32.5 rpm
Log2 differential normalized TPM ratio compared to glucose [23]: 0.4
Transcripts per million (rpm) [23]: 16.3 rpm
Log2 differential normalized TPM ratio compared to glucose [24]: 2.9
Transcripts per million (rpm) [24]: 742.4 rpm
Log2 differential normalized TPM ratio compared to glucose [25]: 3.1
Transcripts per million (rpm) [25]: 514.3 rpm
Log2 differential normalized TPM ratio compared to glucose (LBA0911 Aminopeptidase, COG E): 1.1
Transcripts per million (rpm) (LBA0911 Aminopeptidase, COG E): 369.7 rpm
Log2 differential normalized TPM ratio compared to glucose [26]: 0.6
Transcripts per million (rpm) [26]: 140.8 rpm
Log2 differential normalized TPM ratio compared to glucose (LBA1022 Arginase, COG E): 0.2
Transcripts per million (rpm) (LBA1022 Arginase, COG E): 291.6 rpm
Log2 differential normalized TPM ratio compared to glucose (LBA1055 Mutator protein, COG F): −0.3
Transcripts per million (rpm) (LBA1055 Mutator protein, COG F): 12.1 rpm
Log2 differential normalized TPM ratio compared to glucose [27]: 1.3
Transcripts per million (rpm) [27]: 90.5 rpm
Log2 differential normalized TPM ratio compared to glucose [28]: 1
Transcripts per million (rpm) [28]: 22.4 rpm
Log2 differential normalized TPM ratio compared to glucose [29]: 2.6
Transcripts per million (rpm) [29]: 35.4 rpm
Log2 differential normalized TPM ratio compared to glucose [30]: 3.4
Transcripts per million (rpm) [30]: 36.8 rpm
Log2 differential normalized TPM ratio compared to glucose [31]: 2.4
Transcripts per million (rpm) [31]: 446.4 rpm
Log2 differential normalized TPM ratio compared to glucose (gene LBA0802 (Hypothetical protein)): 0.3
Log2 differential normalized TPM ratio compared to glucose [32]: 0.8
Transcripts per million (rpm) [32]: 86.1 rpm
Log2 differential normalized TPM ratio compared to glucose [33]: 1.1
Transcripts per million (rpm) [33]: 8.4 rpm
Log2 differential normalized TPM ratio compared to glucose [34]: 1
Transcripts per million (rpm) [34]: 64 rpm
Log2 differential normalized TPM ratio compared to glucose [35]: 2.9
Transcripts per million (rpm) [35]: 359.5 rpm
Log2 differential normalized TPM ratio compared to glucose [36]: 1
Transcripts per million (rpm) [36]: 26.1 rpm
Log2 differential normalized TPM ratio compared to glucose [37]: 0.1
Transcripts per million (rpm) [37]: 153.9 rpm
Log2 differential normalized TPM ratio compared to glucose [38]: 0.5
Transcripts per million (rpm) [38]: 99.5 rpm
Log2 differential normalized TPM ratio compared to glucose [39]: 0.5
Transcripts per million (rpm) [39]: 54.3 rpm
Log2 differential normalized TPM ratio compared to glucose [40]: 0.6
Transcripts per million (rpm) [40]: 7 rpm
Log2 differential normalized TPM ratio compared to glucose [41]: 4.2
Transcripts per million (rpm) [41]: 186.9 rpm
Log2 differential normalized TPM ratio compared to glucose [42]: 4.9
Transcripts per million (rpm) [42]: 168.9 rpm
Log2 differential normalized TPM ratio compared to glucose [43]: 2.7
Transcripts per million (rpm) [43]: 160.7 rpm
Log2 differential normalized TPM ratio compared to glucose [44]: 0.7
Transcripts per million (rpm) [44]: 34.4 rpm
Log2 differential normalized TPM ratio compared to glucose (gene LBA1611 (Surface protein)): −0.5
Transcripts per million (rpm) (gene LBA1611 (Surface protein)): 119.5 rpm
Log2 differential normalized TPM ratio compared to glucose [45]: 0.1
Transcripts per million (rpm) [45]: 144.9 rpm
Log2 differential normalized TPM ratio compared to glucose (gene LBA1633 (Surface protein)): 1.2
Transcripts per million (rpm) (gene LBA1633 (Surface protein)): 17.3 rpm
Log2 differential normalized TPM ratio compared to glucose [46]: 0.6
Transcripts per million (rpm) [46]: 17.8 rpm
Log2 differential normalized TPM ratio compared to glucose [47]: 0.3
Transcripts per million (rpm) [47]: 5.1 rpm
Log2 differential normalized TPM ratio compared to glucose [48]: −0.3
Transcripts per million (rpm) [48]: 148.3 rpm
Log2 differential normalized TPM ratio compared to glucose [49]: 1
Transcripts per million (rpm) [49]: 220.4 rpm
Log2 differential normalized TPM ratio compared to glucose [50]: 1
Transcripts per million (rpm) [50]: 171.1 rpm
Log2 differential normalized TPM ratio compared to glucose [51]: 0.5
Transcripts per million (rpm) [51]: 3.7 rpm
Log2 differential normalized TPM ratio compared to glucose [52]: 2
Transcripts per million (rpm) [52]: 170.8 rpm
Log2 differential normalized TPM ratio compared to glucose [53]: 2.2
Transcripts per million (rpm) [53]: 111.3 rpm
Log2 differential normalized TPM ratio compared to glucose [54]: 2.2
Transcripts per million (rpm) [54]: 84.6 rpm
Log2 differential normalized TPM ratio compared to glucose [55]: 2.3
Transcripts per million (rpm) [55]: 73.8 rpm
Log2 differential normalized TPM ratio compared to glucose [56]: 2.2
Transcripts per million (rpm) [56]: 70.8 rpm
Log2 differential normalized TPM ratio compared to glucose [57]: 4.8
Transcripts per million (rpm) [57]: 3776.4 rpm
Log2 differential normalized TPM ratio compared to glucose [58]: 2.5
Transcripts per million (rpm) [58]: 23.8 rpm
Log2 differential normalized TPM ratio compared to glucose [59]: 2.5
Transcripts per million (rpm) [59]: 44.3 rpm
Log2 differential normalized TPM ratio compared to glucose [60]: 3
Transcripts per million (rpm) [60]: 109.5 rpm
Log2 differential normalized TPM ratio compared to glucose [61]: 3.7
Transcripts per million (rpm) [61]: 246.4 rpm
Log2 differential normalized TPM ratio compared to glucose [62]: 3.9
Transcripts per million (rpm) [62]: 452.7 rpm
Log2 differential normalized TPM ratio compared to glucose [63]: 0.2
Transcripts per million (rpm) [63]: 21.6 rpm
